Data as given in article PMC9744749.
No constants are given. Whether binding was seen depends on the method and setting. In cells and extracts the contact can be indirect. Some results given as binding are weak or reduced against the parent protein; the word gives no strength.

By UniProt entry, the sequences of proteins in these tests, tags left out.
UniProt Q8BKJ9: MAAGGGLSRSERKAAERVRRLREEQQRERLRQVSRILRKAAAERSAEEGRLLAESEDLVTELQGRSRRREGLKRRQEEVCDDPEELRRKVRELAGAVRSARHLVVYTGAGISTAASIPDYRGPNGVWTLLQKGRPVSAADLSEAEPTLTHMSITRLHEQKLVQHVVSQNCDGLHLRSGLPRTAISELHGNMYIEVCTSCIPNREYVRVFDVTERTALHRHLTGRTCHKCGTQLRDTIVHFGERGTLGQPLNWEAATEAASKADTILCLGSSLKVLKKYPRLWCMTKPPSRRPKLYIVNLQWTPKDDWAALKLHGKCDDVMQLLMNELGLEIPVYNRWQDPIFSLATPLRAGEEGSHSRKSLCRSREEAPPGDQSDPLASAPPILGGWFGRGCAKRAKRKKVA
UniProt Q5SF07: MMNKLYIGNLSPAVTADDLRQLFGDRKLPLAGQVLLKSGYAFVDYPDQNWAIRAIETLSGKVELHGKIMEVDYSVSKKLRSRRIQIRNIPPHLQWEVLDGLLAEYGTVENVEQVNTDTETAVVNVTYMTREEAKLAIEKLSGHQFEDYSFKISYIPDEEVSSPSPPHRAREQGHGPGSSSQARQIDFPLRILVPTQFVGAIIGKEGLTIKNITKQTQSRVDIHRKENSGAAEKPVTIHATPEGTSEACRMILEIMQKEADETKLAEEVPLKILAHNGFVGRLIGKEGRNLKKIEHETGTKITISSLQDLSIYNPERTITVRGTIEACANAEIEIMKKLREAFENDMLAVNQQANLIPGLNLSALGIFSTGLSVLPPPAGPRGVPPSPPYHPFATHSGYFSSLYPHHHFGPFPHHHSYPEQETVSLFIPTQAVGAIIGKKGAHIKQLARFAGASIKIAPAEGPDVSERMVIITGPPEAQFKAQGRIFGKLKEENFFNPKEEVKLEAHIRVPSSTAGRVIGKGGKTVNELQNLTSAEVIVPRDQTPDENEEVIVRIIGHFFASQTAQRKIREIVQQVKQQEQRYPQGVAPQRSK

Legend:
[1] = target: FLAG-SIRT7 (UniProt Q8BKJ9); assay: co-IP; HEK293T cells co-transfected for 24 h; lysis buffer 20 mM Tris-HCl pH 7.4, 150 mM NaCl, 2.5 mM MgCl2, 0.5% NP-40, 10 mM nicotinamide, 1 uM TSA; immunoprecipitation with anti-FLAG antibody beads overnight at 4 °C; western blotting
[2] = target: Halo-SIRT7 (UniProt Q8BKJ9); assay: pull-down; Halo-SIRT7 immobilised on HaloLink Resin, incubated with lysates of transfected HEK293T cells in pull-down buffer (10 mM Tris-HCl pH 7.4, 150 mM NaCl, 0.5% NP-40, 10 mM nicotinamide, 1 uM TSA) at 4 °C overnight; five washes; western blotting; only the target purified

binding [1]: binds | binding [2]: binds
Substance: 3×HA-IMP2 (from UniProt Q5SF07 1-592)
